These are yes or no findings as the source states them, for the method shown. Binding seen in cells or lysates may run through a third protein. Some results given as binding are weak or reduced against the parent protein; the word gives no strength.
Legend:
[1] = target: PI3K (p85alpha regulatory subunit) (mouse (endogenous in mouse brain)) (UniProt P26450); assay: co-IP; quantitative multiplex co-immunoprecipitation (QMI): IP antibodies on Luminex beads incubated overnight at 4 C with NP-40 lysate of P2 synaptosomes from mouse hippocampus, probed with biotinylated antibodies and streptavidin-PE, read on a flow cytometer; four ASD models (Shank3B-/-, Shank3 delta ex4-9+/-, Ube3a2xTG, E12.5 VPA) against littermate controls; only changes against control are told
[2] = target: T1, Homer1 (mouse (endogenous in mouse brain)) (UniProt Q9Z2Y3); assay: co-IP; quantitative multiplex co-immunoprecipitation (QMI): IP antibodies on Luminex beads incubated overnight at 4 C with NP-40 lysate of P2 synaptosomes from mouse frontal cortex, probed with biotinylated antibodies and streptavidin-PE, read on a flow cytometer; seven ASD models (Shank3B-/-, Shank3 delta ex4-9+/-, Ube3a2xTG, E12.5 VPA, TSC2+/-, FMR1-/y, Cntnap2-/-) against littermate controls; only changes against control are told
T1 sequence: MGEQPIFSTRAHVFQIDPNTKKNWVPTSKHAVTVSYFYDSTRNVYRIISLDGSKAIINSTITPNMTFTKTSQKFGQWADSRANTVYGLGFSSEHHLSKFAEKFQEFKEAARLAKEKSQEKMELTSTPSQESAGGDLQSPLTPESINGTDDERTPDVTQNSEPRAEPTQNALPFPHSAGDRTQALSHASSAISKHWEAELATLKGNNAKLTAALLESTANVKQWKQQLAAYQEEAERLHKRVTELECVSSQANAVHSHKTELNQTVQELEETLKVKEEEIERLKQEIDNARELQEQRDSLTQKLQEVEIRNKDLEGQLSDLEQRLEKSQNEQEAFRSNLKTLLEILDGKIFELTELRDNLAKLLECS

Protein sequences, listed by entry. Tags and fused reporters are not part of them. Residues count along the entry.
UniProt Q811D0: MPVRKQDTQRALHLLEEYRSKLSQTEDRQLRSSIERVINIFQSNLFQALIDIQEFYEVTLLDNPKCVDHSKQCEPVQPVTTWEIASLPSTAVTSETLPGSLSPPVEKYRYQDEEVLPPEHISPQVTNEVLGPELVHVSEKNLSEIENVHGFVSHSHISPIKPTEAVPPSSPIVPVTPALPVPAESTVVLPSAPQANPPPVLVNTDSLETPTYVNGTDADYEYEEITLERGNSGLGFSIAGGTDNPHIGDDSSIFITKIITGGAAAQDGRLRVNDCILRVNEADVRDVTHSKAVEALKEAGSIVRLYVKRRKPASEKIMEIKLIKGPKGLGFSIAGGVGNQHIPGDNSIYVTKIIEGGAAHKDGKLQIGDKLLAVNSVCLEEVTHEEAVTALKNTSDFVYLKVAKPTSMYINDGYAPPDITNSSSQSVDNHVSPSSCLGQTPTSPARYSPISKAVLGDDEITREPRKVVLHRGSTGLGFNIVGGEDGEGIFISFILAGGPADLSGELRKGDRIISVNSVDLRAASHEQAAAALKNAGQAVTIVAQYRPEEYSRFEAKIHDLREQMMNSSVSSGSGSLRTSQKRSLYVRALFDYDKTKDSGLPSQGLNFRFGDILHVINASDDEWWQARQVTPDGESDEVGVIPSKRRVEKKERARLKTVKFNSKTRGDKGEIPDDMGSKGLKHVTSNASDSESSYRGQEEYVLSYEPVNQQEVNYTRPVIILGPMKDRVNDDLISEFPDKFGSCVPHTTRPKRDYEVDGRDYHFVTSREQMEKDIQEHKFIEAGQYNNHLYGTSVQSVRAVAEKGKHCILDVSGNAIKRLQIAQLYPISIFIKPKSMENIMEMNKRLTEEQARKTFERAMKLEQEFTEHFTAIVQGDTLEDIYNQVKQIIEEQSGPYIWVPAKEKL
UniProt P39688: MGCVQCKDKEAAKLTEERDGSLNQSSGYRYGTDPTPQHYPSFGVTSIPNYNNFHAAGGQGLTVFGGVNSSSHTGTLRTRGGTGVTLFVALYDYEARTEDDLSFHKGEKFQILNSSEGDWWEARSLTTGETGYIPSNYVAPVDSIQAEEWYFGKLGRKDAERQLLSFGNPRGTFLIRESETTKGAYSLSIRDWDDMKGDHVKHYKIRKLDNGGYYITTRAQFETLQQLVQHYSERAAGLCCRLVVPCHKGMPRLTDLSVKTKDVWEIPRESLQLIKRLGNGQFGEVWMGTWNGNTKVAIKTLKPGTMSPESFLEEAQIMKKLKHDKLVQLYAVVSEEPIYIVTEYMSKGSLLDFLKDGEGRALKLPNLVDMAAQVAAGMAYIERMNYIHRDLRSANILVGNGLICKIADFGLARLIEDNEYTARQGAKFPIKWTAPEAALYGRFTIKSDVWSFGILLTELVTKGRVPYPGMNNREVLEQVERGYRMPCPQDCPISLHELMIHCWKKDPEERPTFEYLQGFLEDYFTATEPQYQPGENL
UniProt Q01097, residues 27-1482: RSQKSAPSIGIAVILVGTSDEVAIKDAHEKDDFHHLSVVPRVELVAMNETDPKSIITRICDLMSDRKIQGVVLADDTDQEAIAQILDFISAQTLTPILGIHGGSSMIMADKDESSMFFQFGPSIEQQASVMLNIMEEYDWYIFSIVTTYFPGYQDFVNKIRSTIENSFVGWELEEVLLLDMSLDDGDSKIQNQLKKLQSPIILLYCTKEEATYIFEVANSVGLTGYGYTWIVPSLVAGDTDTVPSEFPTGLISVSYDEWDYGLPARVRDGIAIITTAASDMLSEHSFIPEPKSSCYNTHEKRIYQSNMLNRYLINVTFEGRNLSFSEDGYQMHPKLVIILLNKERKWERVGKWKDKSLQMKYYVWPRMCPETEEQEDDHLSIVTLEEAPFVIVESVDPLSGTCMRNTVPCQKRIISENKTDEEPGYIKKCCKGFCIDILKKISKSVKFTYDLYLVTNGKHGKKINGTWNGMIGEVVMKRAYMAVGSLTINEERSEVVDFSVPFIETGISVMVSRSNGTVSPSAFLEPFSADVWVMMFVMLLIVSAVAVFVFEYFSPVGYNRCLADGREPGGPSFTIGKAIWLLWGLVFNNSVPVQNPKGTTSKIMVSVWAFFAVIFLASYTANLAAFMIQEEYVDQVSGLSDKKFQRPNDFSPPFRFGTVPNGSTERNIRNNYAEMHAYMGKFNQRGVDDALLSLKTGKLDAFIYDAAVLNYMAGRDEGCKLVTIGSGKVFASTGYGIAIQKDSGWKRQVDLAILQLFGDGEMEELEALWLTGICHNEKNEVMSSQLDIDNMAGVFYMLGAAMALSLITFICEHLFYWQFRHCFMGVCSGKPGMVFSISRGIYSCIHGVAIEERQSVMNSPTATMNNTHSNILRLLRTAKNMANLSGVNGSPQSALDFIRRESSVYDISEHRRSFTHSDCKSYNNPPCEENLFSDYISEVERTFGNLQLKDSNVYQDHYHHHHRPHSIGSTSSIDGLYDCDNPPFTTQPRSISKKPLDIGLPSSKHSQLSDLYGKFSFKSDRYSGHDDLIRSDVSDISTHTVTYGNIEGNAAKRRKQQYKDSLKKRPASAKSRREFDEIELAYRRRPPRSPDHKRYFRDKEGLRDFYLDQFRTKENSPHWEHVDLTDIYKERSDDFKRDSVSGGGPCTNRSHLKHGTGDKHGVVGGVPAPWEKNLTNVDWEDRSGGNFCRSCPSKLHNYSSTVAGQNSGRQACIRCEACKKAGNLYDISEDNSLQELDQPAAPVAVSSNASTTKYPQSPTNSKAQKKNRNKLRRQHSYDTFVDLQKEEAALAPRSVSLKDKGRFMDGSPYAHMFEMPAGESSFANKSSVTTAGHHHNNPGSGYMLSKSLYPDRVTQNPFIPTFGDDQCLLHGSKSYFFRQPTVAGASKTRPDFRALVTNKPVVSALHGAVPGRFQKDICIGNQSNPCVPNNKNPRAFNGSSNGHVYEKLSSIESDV
UniProt Q4ACU6: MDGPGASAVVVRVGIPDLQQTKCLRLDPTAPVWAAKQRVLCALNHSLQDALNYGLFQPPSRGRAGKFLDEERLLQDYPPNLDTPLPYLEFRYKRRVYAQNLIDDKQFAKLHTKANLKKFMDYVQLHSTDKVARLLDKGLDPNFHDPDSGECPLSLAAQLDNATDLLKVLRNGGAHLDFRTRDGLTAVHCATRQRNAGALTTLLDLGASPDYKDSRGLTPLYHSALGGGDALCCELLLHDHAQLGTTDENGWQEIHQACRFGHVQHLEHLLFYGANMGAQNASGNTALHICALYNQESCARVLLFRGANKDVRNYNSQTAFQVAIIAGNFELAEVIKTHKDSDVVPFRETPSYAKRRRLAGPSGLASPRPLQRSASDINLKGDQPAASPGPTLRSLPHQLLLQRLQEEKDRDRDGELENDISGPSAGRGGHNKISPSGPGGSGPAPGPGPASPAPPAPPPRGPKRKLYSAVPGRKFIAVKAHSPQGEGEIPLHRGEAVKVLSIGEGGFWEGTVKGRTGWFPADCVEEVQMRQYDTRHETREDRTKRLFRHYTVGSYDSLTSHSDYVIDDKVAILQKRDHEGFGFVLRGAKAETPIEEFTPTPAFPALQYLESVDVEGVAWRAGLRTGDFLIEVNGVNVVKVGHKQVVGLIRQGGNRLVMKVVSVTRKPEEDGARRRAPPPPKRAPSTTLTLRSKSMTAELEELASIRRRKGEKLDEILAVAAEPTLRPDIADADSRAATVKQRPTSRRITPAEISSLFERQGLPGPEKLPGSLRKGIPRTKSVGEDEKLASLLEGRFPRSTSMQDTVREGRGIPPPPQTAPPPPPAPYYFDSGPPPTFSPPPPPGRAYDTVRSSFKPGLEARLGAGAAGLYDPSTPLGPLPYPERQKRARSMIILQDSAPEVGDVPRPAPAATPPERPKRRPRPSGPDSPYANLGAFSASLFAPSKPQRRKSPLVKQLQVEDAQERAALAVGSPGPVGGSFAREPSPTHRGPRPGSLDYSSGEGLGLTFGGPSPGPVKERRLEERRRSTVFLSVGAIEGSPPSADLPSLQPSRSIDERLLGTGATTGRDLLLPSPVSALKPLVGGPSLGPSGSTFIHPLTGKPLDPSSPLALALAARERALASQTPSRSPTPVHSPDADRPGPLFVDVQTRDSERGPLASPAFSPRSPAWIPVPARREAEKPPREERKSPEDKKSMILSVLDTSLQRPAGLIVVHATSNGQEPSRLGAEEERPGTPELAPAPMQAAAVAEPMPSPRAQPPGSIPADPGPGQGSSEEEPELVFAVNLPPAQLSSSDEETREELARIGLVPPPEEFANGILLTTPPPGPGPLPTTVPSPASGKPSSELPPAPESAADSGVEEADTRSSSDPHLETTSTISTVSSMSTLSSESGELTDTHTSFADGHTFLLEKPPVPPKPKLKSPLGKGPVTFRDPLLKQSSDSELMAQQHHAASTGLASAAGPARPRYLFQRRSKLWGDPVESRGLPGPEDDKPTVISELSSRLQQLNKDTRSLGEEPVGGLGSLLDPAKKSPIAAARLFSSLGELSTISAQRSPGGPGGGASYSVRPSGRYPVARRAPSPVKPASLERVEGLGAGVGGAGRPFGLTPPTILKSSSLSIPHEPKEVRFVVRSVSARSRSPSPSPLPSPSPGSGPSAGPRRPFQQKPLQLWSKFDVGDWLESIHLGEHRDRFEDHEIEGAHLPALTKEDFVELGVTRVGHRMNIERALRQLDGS
UniProt Q3UVX5, residues 19-1203: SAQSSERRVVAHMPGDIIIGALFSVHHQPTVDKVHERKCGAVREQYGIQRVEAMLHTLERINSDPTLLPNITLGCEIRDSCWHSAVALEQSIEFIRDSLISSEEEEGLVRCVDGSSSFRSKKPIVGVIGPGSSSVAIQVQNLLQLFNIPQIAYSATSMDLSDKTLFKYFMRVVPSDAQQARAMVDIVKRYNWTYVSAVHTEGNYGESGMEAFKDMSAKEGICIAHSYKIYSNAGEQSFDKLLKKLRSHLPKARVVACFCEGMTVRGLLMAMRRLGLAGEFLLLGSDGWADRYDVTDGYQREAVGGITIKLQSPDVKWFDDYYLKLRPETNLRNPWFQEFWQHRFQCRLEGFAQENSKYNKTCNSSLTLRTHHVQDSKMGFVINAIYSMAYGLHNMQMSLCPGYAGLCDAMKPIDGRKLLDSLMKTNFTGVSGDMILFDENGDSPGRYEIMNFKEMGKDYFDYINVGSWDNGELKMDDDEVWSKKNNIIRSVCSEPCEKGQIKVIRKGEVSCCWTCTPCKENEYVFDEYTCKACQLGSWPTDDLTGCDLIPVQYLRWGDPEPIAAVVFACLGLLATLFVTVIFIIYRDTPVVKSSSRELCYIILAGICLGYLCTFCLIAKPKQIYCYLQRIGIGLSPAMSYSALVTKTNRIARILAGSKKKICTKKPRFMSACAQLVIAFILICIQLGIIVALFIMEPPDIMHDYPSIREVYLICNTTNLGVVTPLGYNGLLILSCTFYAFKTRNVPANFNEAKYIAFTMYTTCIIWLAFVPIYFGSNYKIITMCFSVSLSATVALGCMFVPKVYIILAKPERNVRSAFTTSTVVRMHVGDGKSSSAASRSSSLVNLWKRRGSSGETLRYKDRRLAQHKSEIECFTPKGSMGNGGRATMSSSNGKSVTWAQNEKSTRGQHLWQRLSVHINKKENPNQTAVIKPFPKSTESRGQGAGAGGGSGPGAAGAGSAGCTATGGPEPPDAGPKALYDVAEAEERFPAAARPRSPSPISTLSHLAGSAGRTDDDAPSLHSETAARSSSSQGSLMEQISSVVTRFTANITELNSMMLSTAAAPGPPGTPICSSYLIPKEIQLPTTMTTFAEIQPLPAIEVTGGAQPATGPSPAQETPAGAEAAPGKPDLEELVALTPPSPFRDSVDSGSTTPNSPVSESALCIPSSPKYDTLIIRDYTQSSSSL

[3] = target: Neuroligin 3 (mouse (endogenous in mouse brain)) (UniProt Q8BYM5); assay: co-IP; quantitative multiplex co-immunoprecipitation (QMI): IP antibodies on Luminex beads incubated overnight at 4 C with NP-40 lysate of P2 synaptosomes from mouse hippocampus, probed with biotinylated antibodies and streptavidin-PE, read on a flow cytometer; four ASD models (Shank3B-/-, Shank3 delta ex4-9+/-, Ube3a2xTG, E12.5 VPA) against littermate controls; only changes against control are told
[4] = target: T1, Homer1 (mouse (endogenous in mouse brain)); assay: as above
[5] = target: SAP97 (mouse (endogenous in mouse brain)) (UniProt Q811D0); assay: as above
[6] = target: T2, SynGAP1 (mouse (endogenous in mouse brain)) (UniProt F6SEU4); assay: as above
T2 sequence: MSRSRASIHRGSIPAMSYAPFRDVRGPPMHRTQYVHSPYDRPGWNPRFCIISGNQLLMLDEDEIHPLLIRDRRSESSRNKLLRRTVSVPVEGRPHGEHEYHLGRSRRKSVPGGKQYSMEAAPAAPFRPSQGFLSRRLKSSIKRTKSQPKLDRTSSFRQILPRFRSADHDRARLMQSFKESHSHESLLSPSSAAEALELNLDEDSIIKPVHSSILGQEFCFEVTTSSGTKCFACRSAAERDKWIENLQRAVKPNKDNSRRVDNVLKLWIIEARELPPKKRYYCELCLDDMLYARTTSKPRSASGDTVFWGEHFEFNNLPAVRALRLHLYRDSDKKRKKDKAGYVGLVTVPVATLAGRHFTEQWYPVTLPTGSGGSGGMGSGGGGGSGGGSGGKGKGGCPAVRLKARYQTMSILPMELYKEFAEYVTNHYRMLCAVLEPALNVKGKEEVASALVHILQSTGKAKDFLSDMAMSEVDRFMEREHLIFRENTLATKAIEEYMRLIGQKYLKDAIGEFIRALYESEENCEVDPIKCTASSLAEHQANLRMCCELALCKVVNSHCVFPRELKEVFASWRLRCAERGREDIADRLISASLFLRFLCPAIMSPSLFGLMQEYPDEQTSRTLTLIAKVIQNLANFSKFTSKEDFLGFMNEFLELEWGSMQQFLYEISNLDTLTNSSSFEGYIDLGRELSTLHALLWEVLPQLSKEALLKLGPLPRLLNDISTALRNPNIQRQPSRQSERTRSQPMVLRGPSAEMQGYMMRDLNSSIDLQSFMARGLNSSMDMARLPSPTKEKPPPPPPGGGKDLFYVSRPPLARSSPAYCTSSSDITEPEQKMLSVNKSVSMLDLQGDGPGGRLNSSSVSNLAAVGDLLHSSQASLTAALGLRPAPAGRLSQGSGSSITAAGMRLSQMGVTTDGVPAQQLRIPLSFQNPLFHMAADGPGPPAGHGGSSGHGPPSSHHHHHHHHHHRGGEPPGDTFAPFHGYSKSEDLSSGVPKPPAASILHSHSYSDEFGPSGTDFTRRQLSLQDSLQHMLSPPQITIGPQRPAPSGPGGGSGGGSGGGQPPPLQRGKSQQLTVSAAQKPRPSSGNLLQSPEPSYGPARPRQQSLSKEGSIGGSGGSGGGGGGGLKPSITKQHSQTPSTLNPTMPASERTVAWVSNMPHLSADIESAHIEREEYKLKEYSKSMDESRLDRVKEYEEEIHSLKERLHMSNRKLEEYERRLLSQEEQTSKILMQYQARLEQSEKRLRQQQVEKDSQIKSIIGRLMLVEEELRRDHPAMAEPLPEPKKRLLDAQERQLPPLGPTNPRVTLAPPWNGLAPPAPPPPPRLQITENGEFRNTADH

[7] = target: Fyn Kinase (mouse (endogenous in mouse brain)) (UniProt P39688); assay: co-IP; quantitative multiplex co-immunoprecipitation (QMI): IP antibodies on Luminex beads incubated overnight at 4 C with NP-40 lysate of P2 synaptosomes from mouse frontal cortex, probed with biotinylated antibodies and streptavidin-PE, read on a flow cytometer; seven ASD models (Shank3B-/-, Shank3 delta ex4-9+/-, Ube3a2xTG, E12.5 VPA, TSC2+/-, FMR1-/y, Cntnap2-/-) against littermate controls; only changes against control are told
[8] = target: GluR2 (mouse (endogenous in mouse brain)) (UniProt P23819); assay: as above
[9] = target: NMDAR1 (mouse (endogenous in mouse brain)) (UniProt P35438); assay: as above
[10] = target: NMDAR1 (mouse (endogenous in mouse brain)) (UniProt P35438); assay: co-IP; quantitative multiplex co-immunoprecipitation (QMI): IP antibodies on Luminex beads incubated overnight at 4 C with NP-40 lysate of P2 synaptosomes from mouse hippocampus, probed with biotinylated antibodies and streptavidin-PE, read on a flow cytometer; four ASD models (Shank3B-/-, Shank3 delta ex4-9+/-, Ube3a2xTG, E12.5 VPA) against littermate controls; only changes against control are told
[11] = target: SAP97 (mouse (endogenous in mouse brain)) (UniProt Q811D0); assay: co-IP; quantitative multiplex co-immunoprecipitation (QMI): IP antibodies on Luminex beads incubated overnight at 4 C with NP-40 lysate of P2 synaptosomes from mouse frontal cortex, probed with biotinylated antibodies and streptavidin-PE, read on a flow cytometer; seven ASD models (Shank3B-/-, Shank3 delta ex4-9+/-, Ube3a2xTG, E12.5 VPA, TSC2+/-, FMR1-/y, Cntnap2-/-) against littermate controls; only changes against control are told
[12] = target: NMDAR2A (mouse (endogenous in mouse brain)) (UniProt P35436); assay: as above
[13] = target: NMDAR2B (mouse (endogenous in mouse brain)) (UniProt Q01097); assay: as above
[14] = target: SHANK3 (mouse (endogenous in mouse brain)) (UniProt Q4ACU6); assay: as above

Measured: binding

SAP97 (from UniProt Q811D0 1-905)
binds: [1] | [2]

Fyn Kinase (from UniProt P39688 1-537) (enzyme)
binds: [3]

NMDAR2B (from UniProt Q01097 27-1482) (receptor)
binds: [4] | [5] | [6]

NMDAR2A (from UniProt P35436 23-1464) (receptor)
binds: [3] | [1] | [6]

SHANK3 (from UniProt Q4ACU6 1-1730)
binds: [5] | [7] | [8] | [9]

mGluR5 (from UniProt Q3UVX5 19-1203) (receptor)
binds: [4] | [10] | [1] | [11]

Neuroligin 3 (from UniProt Q8BYM5 35-825)
binds: [7] | [12] | [13] | [14]

From publication PMC6139139
